According to patent US12318365B2, “Inhibition of dipeptide repeat proteins” (ALS Therapy Development Institute, priority 2019, dated 2025):
For at least one compound, name, drawing or mass did not settle the structure.

Test system: NSC-34 motor-neuron-like cells
Assay: WST-1 assay (dysmetabolism) in NSC-34 cells
Format: cell-based, Mouse
Settings: 24 h, over all tested doses of the inhibitor
From the text: WST-1 Assay: The WST-1 assay is a colorimetric assay that measures cell metabolism. Cells with a healthy metabolism contain mitochondrial dehydrogenase enzymes that remove hydrogen atoms from certain molecules, resulting in a release of energy that the cell can use to perform critical reactions. In the WST-1 assay, a water soluble tetrazolium salt substrate (known as WST-1) is applied, which readily enters cells and their mitochondria upon application. If cells are viable, their mitochondrial dehydrogenase enzymes will catalyze the reaction to convert this WST-1 substrate to a colored product called Formazan. The production of this colored Formazan product by viable cells can be quantified using a spectrophotometer (plate reader). Higher absorbance readings correspond to greater metabolic activity/cell viability. […]
WST-1 Assay: Cells were plated and prepared using the steps described in the “Plating NSC-34 and Dosing with DRPs and PRMT Inhibitors” section of these methods. […] To wells containing 200 μL DPBS-glucose solution, 20 μL/well WST-1 reagent (Millipore-Sigma, Burlington, MA) was applied and plates were then incubated at 37° C., 5% CO2 for 1 h before plates were read at 450 nm on a SpectraMax M3 Microplate Reader (Molecular Devices, San Jose, CA, USA). […]

O=C(NC[C@H](O)CN1CCc2ccccc2C1)c1ccnc(NC2CCC2)c1 [GSK591]
abrogation of GR15-induced dysmetabolism (3 μM GR15 challenge): did not abrogate | abrogation of PR15-induced dysmetabolism (3 μM PR15 challenge): No doses of GSK591 abrogated dysmetabolism
